# The supplement of paper PMC4635364
# Structures can show the parent of a compound that is named as a salt. The list shows a part of the results. Single values are uncertain here, since repeats match poorly.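 ReNCell VM, a human fetal ventral-midbrain neural progenitor line, was differentiated without mitogens. Blinded raters scored images stained for doublecortin (early neurons) or tyrosine hydroxylase (dopaminergic neurons) against untreated wells (0 = no change). Scores were averaged across repeats and both raters, and compounds averaging 2 or more were selected as hits for retesting.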
# System: ReNCell VM
# Assay: neuronal differentiation score (DCX+ cell fraction vs untreated, manual image score) (score (-3 to 3)); higher = more neuronal differentiation
# Conditions: library: LOPAC; 2 uM; 2 weeks
row,Compound,neuronal differentiation score
1,OC[C@H]1O[C@H]([S-])[C@H](O)[C@@H](O)[C@@H]1O.[Au+] [Aurothioglucose],inactive: 0
2,COc1ccc(CCNC[C@@H](O)c2ccc(O)cc2)cc1OC [R(-)-Denopamine],inactive: 0
3,CC(C)COC(=O)OCN1C(=O)CN(CCN2CC(=O)N(COC(=O)OCC(C)C)C(=O)C2)CC1=O [Sobuzoxane],inactive: 0
4,CN1CCc2ccccc2Cc2[nH]c3ccccc3c2CC1,inactive: 1
5,"O=c1oc(Cl)c(Cl)c2ccccc12 [3,4-Dichloroisocoumarin]",inactive: -1
6,N[C@@H](C(=O)N[C@@H]1C(=O)N2C(C(=O)O)=C(Cl)CS[C@H]12)c1ccccc1 [Cefaclor],inactive: 0

# An excerpt from above in order of length of the SMILES, descending.
row,Compound,neuronal differentiation score
6,N[C@@H](C(=O)N[C@@H]1C(=O)N2C(C(=O)O)=C(Cl)CS[C@H]12)c1ccccc1 [Cefaclor],inactive: 0
2,COc1ccc(CCNC[C@@H](O)c2ccc(O)cc2)cc1OC [R(-)-Denopamine],inactive: 0
4,CN1CCc2ccccc2Cc2[nH]c3ccccc3c2CC1,inactive: 1

# Same assay, conditions: library: Prestwick; 2 uM; 2 weeks
row,Compound,neuronal differentiation score
1,O=C(c1ccccc1)c1ccc2n1CCC2C(=O)O (configuration not stated) [Ketorolac tromethamine],inactive: 0
2,Cn1c(=O)c2c(ncn2CC(=O)O)n(C)c1=O [Acefylline],inactive: 0
3,CC(CNC1CCCCC1)OC(=O)c1ccccc1 (configuration not stated) [Hexylcaine hydrochloride],inactive: 0
4,N#CC(c1ccc(Cl)cc1)c1c(Cl)cc(-n2ncc(=O)[nH]c2=O)cc1Cl (configuration not stated) [Diclazuril],inactive: 0
5,CC(=O)OCC(=O)[C@@]1(O)CC[C@H]2[C@@H]3CCC4=CC(=O)CC[C@]4(C)[C@@]3(F)[C@@H](O)C[C@@]21C [Fludrocortisone acetate],inactive: 0
6,CCC(=O)OCC(=O)[C@@]1(OC(=O)CC)[C@@H](C)C[C@H]2[C@@H]3CCC4=CC(=O)C=C[C@]4(C)[C@@]3(Cl)[C@@H](O)C[C@@]21C [Beclomethasone dipropionate],inactive: 0
7,CC1(C)S[C@@H]2[C@H](NC(=O)[C@H](N)c3ccccc3)C(=O)N2[C@H]1C(=O)O [Ampicillin trihydrate],inactive: 0
8,CCCCC(CC)CN1CN(CC(CC)CCCC)CC(C)(N)C1 (configuration not stated) [Hexetidine],inactive: 0

# Same assay, conditions: library: Spectrum; 2 uM; 2 weeks
row,Compound,neuronal differentiation score
1,CCCCCCOC(=O)NC(=N)c1ccc(NCc2nc3cc(C(=O)N(CCC(=O)OCC)c4ccccn4)ccc3n2C)cc1,inactive: 0
2,CN(C/C=C/C#CC(C)(C)C)Cc1cccc2ccccc12,inactive: 0
3,NC(Cn1ccc(=O)c(O)c1)C(=O)O (configuration not stated),inactive: 0
4,CCCCNc1cc(C(=O)O)cc(S(N)(=O)=O)c1Oc1ccccc1,inactive: 0
5,O=S(=O)(O)CCS,inactive: 0
6,CCOC(=O)OC(C)OC1=C(C(=O)Nc2ccccn2)N(C)S(=O)(=O)c2ccccc21 (configuration not stated),inactive: 0
7,CCC[C@@H]1C[C@@H](C(=O)N[C@@H]([C@H]2O[C@H](SC)[C@H](O)[C@@H](O)[C@H]2O)[C@H](C)Cl)N(C)C1,inactive: 0
8,Cc1coc2c1C(=O)C(=O)c1c-2ccc2c1CCCC2(C)C,inactive: 0
9,COc1cc(O)cc(OC)c1OC,inactive: 0
10,C[C@H]1[C@H]2CC[C@H]3[C@@H]4CC=C5C[C@@H](N(C)C)CC[C@]5(C)[C@H]4CC[C@]23CN1C,inactive: 0
11,C[C@]12CC[C@@H]3c4ccc(O)cc4CC[C@H]3[C@@H]1C[C@@H](O)[C@@H]2O,inactive: 0
12,C[C@@H]1O[C@@H](O[C@H]2[C@H](Oc3cc(O)c4c(c3)O[C@H](c3ccc(O)cc3)CC4=O)O[C@H](CO)[C@@H](O)[C@@H]2O)[C@H](O)[C@H](O)[C@H]1O,inactive: 0
13,C[C@]12CCC(=O)C=C1CC[C@@H]1[C@@H]2C(=O)C[C@@]2(C)[C@H]1CC[C@]2(O)C(=O)CO,inactive: 0
14,CN[C@H]1CC[C@@H](c2ccc(Cl)c(Cl)c2)c2ccccc21,inactive: 0
15,Cc1ccc(S(=O)(=O)NCl)cc1,inactive: 0
16,CC(C)NCC(O)COc1cccc2ccccc12 (racemic),inactive: -1
17,O=c1oc2ccccc2c(O)c1Cc1c(O)c2ccccc2oc1=O,inactive: 1
18,CN1CCc2cccc3c2[C@H]1Cc1ccc(O)c(O)c1-3,inactive: 0

# Same assay, conditions: library: Tocriscreen; 2 uM; 2 weeks
row,Compound,neuronal differentiation score
1,O=C(O)c1ccc(-c2c[nH]c3ncc(-c4ccccc4)cc23)cc1C1CCCC1,inactive: 0
2,CCCN(C/C=C/I)C1CCc2cccc(O)c2C1 (configuration not stated) [8-Hydroxy-PIPAT oxalate],inactive: 0
3,CN(CCc1ccc(Cl)c(Cl)c1)CC(O)COc1ccc(NS(C)(=O)=O)cc1 (configuration not stated),inactive: 0
4,CC1=C(C(=O)OCCN(Cc2ccccc2)c2ccccc2)C(c2cccc([N+](=O)[O-])c2)C(P2(=O)OCC(C)(C)CO2)=C(C)N1 (configuration not stated) [Efonidipine hydrochloride monoethanolate],inactive: 0

# System: ReNCell VM
# Assay: dopaminergic neuron differentiation score (TH+ cell fraction vs untreated, manual image score) (score (0 to 3)); higher = more TH+ dopaminergic neuron differentiation
# Conditions: library: LOPAC; 2 uM; 4 weeks; BDNF 10 ng/ml + GDNF 10 ng/ml
row,Compound,dopaminergic neuron differentiation score
1,OC[C@H]1O[C@H]([S-])[C@H](O)[C@@H](O)[C@@H]1O.[Au+] [Aurothioglucose],inactive: 0
2,COc1ccc(CCNC[C@@H](O)c2ccc(O)cc2)cc1OC [R(-)-Denopamine],inactive: 0
3,CC(C)COC(=O)OCN1C(=O)CN(CCN2CC(=O)N(COC(=O)OCC(C)C)C(=O)C2)CC1=O [Sobuzoxane],inactive: 0
4,CN1CCc2ccccc2Cc2[nH]c3ccccc3c2CC1,inactive: 0
5,"O=c1oc(Cl)c(Cl)c2ccccc12 [3,4-Dichloroisocoumarin]",inactive: 1
6,N[C@@H](C(=O)N[C@@H]1C(=O)N2C(C(=O)O)=C(Cl)CS[C@H]12)c1ccccc1 [Cefaclor],inactive: 0
